From publication PMC7765506
No constants are given. Whether binding was seen depends on the method and setting. In cells and extracts the contact can be indirect. Some entries that bind do so weakly or less than the wild type.

Sequences of proteins named here, by UniProt entry; tags and fusion partners are left off.
UniProt P49841: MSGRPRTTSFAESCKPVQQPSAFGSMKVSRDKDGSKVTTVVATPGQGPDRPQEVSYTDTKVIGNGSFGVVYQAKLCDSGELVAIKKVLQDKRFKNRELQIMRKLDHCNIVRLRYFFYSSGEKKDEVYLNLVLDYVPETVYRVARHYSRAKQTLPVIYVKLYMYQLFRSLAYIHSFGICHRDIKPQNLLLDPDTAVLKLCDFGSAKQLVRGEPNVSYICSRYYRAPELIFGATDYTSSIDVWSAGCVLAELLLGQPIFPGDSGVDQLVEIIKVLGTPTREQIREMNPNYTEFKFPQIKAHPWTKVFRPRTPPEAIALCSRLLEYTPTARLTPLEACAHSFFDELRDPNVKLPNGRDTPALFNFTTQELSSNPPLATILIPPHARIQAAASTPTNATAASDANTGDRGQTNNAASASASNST

T1: Tribbles pseudokinase 3 (human (endogenous in AN3CA and HEC1A)), Q96RU7
T1 chain: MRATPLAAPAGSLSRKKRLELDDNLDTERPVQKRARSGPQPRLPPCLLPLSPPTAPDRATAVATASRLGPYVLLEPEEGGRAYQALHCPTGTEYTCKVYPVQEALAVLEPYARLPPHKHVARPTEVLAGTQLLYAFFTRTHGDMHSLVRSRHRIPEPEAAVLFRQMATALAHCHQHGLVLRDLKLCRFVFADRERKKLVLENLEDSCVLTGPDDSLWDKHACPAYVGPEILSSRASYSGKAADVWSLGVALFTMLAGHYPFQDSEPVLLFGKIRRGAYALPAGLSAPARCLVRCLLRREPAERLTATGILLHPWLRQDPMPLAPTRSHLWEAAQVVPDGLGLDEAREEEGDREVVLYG


How the values were obtained:
[1] = biological target: Tribbles pseudokinase 3 (human (endogenous in AN3CA and HEC1A)) (UniProt Q96RU7); experiment: co-IP; 0.5 mg of total cellular proteins from AN3CA cells, immunoprecipitation with an anti-TRIB3 antibody or control IgG in IP buffer (20 mM HEPES pH 7.9, 2 mM MgCl2, 0.2 mM EDTA, 0.1 mM KCl, 1 mM dithiothreitol, 10% glycerol, 0.1% NP-40) at 4 °C overnight, Protein G Mag sepharose beads, Western blot
[2] = biological target: T1, Tribbles pseudokinase 3 (human …); experiment: as above; settings: remark: other sources report otherwise

| Molecule | binding [1] | binding [2] |
| --- | --- | --- |
| GSK3β (from UniProt P49841 1-420) | binds | – |
| β-catenin, P35222 1-781 (protein) MATQADLMELDMAMEPDRKAAVSHWQQQSYLDSGIHSGATTTAPSLSGKGNPEEEDVDTSQVLYEWEQGFSQSFTQEQVADIDGQYAMTRAQRVRAAMFPETLDEGMQIPSTQFDAAHPTNVQRLAEPSQMLKHAVVNLINYQDDAELATRAIPELTKLLNDEDQVVVNKAAVMVHQLSKKEASRHAIMRSPQMVSAIVRTMQNTNDVETARCTAGTLHNLSHHREGLLAIFKSGGIPALVKMLGSPVDSVLFYAITTLHNLLLHQEGAKMAVRLAGGLQKMVALLNKTNVKFLAITTDCLQILAYGNQESKLIILASGGPQALVNIMRTYTYEKLLWTTSRVLKVLSVCSSNKPAIVEAGGMQALGLHLTDPSQRLVQNCLWTLRNLSDAATKQEGMEGLLGTLVQLLGSDDINVVTCAAGILSNLTCNNYKNKMMVCQVGGIEALVRTVLRAGDREDITEPAICALRHLTSRHQEAEMAQNAVRLHYGLPVVVKLLHPPSHWPLIKATVGLIRNLALCPANHAPLREQGAIPRLVQLLVRAHQDTQRRTSMGGTQQQFVEGVRMEEIVEGCTGALHILARDVHNRIVIRGLNTIPLFVQLLYSPIENIQRVAAGVLCELAQDKEAAEAIEAEGATAPLTELLHSRNEGVATYAAAVLFRMSEDKPQDYKKRLSVELTSSLFRTEPMAWNETADLGLDIGAQGEPLGYRQDDPSYRSFHSGGYGQDALGMDPMMEHEMGGHHPGADYPVDGLPDLGHAQDLMDGLPPGDSNQLAWFDTDL | – | no binding |
